# Measurements reported in the supplement of paper PMC3334620.
# Whole data set: some 33,000 sequences, median “E-score (-0.5 to 0.5)” near -0.0059, cut for the highest 2% near 0.26. The list shows a part of the results.
# Target: T1, Cin5 (UniProt P40917)
# T1 sequence: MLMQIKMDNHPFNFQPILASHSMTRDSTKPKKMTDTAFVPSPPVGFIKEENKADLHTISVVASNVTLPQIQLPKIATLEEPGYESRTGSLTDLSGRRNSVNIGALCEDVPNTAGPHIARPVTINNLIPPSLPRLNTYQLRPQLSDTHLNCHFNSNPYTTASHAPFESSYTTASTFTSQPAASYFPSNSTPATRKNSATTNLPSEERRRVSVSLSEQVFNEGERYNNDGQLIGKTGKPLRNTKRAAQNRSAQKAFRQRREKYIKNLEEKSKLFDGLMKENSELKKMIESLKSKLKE
# Experiment: PBM E-score (8-mer binding enrichment) (E-score (-0.5 to 0.5)); higher = stronger / more preferred TF binding
# Settings: protein concentration: 100 nM; construct: GST-full length
# Protocol: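 Universal 'all 10-mer' protein binding microarrays (Agilent AMADID 015681) probed with GST-tagged S. cerevisiae TFs (full-length or DBD) made by in vitro transcription/translation (PURExpress), about 100-200 nM. Bound TF was detected with fluorescent anti-GST. Each ungapped 8-mer (which stands for itself and its reverse complement) is scored by the PBM enrichment score (E-score), a modified Wilcoxon-Mann-Whitney statistic from -0.5 to +0.5, computed with the Universal PBM Analysis Suite. Scale: above 0.35 generally sequence-specific binding.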
row,Sequence,PBM E-score
1,ACCAATAC,0.104
2,AGAGAGCA,-0.163
3,CGATACAA,0.181
4,CACAAATA,0.161
5,GCGTCGCA,-0.162
6,TCCCGCGA,-0.0676
7,GAGATATC,0.0943
8,ACTTATGC,0.0453
9,CAAAACTC,0.0756
10,GGCGAACC,-0.0678
11,CGCCGTAG,-0.174
12,GCCCGCTA,-0.341
13,CGAATTAC,0.0723
14,TGATGACA,0.105
15,CCCCATTC,-0.064
16,GAAACTGC,-0.14
17,TAATCATA,0.326
18,CGAGTTCC,0.0721
19,ATGCCACA,0.056
20,GGAGGTAC,-0.161
21,AGGAGCGG,-0.27
22,AAGGCCAC,-0.132
23,CCACCAGC,-0.0851
24,GACGCCGA,0.0841
25,GCCGGGAC,-0.266

row,Sequence,PBM E-score
1,CAGGGCGG,-0.207
2,AACAACGA,0.0177
3,GCGGTCAC,-0.155
4,AGGTCACA,-0.0344
5,AATGACAA,0.243
6,TAGGCGAA,0.0125
7,AGGACCTA,0.0838
8,CGCAGGCG,-0.283
9,ACGAGACC,-0.0255
10,CCTCGTAA,0.249
11,AGCGATAG,-0.127
12,CCATGTTA,0.125
13,AACTTCTA,-0.00178
14,ACAGAGAG,-0.112
15,TAATACCA,0.279
16,AGCGTCGG,-0.0408
17,CCAGTTTA,0.0208
18,ATAGCAAC,0.18
19,AAGAGGGA,-0.178
20,TCGCCGCA,-0.0487
21,CGACGCAA,-0.119
22,AGGTGTGA,-0.0127
23,AGAGACGG,-0.151
24,AGTCTGTC,-0.156
25,ACTAGTGG,0.134

row,Sequence,PBM E-score
1,AAAGATCT,-0.0862
2,TACTTATA,0.0465
3,TAATTTGA,0.0255
4,CATGTCGA,-0.0282
5,AAACCTTT,-0.155
6,CGCATCAC,-0.11
7,ATACGTTG,0.0912
8,TCCGGCCA,-0.131
9,ATCTCGCC,0.0516
10,TATAGCCA,0.111
11,CGGCAGTC,0.0575
12,CGGCGGCA,-0.214
13,CCAGTTCC,0.0366
14,AACCAATT,0.221
15,AAGCTAGT,0.133
16,CTTTGAAA,-0.0167
17,TCAGTCCA,-0.312
18,GCTGTCCA,-0.0158
19,ATCAATAA,0.158
20,CGCTGCGC,-0.204
21,AAGTCGAA,-0.0375
22,CGTCAAAC,-0.105
23,AACCGCTA,0.0639
24,GAACATCC,0.0789
25,CCCATACC,0.0984

row,Sequence,PBM E-score
1,GACGGCGC,-0.118
2,AACTAGAT,0.0382
3,AGCGCAAA,0.125
4,GTGCTAGA,-0.0787
5,GGAAAAAC,0.194
6,GGCATTCA,0.0441
7,GCAGTGAC,-0.0501
8,CACGCGTA,0.0157
9,CTGTACCA,-0.0889
10,AATGCTGC,0.0801
11,ATGACGTG,0.191
12,ACGAAGCC,-0.0831
13,GACCACGA,-0.0244
14,TCTATGCA,-0.0269
15,ACACTAAG,-0.092
16,GCCACGCA,-0.264
17,AAGTGTGA,-0.0482
18,CCGTACAC,-0.0633
19,CAAGGGGG,-0.482
20,ATCTGGAA,0.11
21,AGTTACAA,0.194
22,ATAGTAAT,0.358
23,AGACCAGG,-0.122
24,CGTCCTAC,0.0176
25,TCCTTACA,-0.021

row,Sequence,PBM E-score
1,CACATTGG,0.0453
2,CGGCTGAA,-0.0649
3,ATCAATCA,0.102
4,CCGTGTGC,-0.104
5,ATCTGGAG,-0.16
6,TAGGTTGA,0.0376
7,CCTTCGGC,-0.33
8,GCAAGACC,-0.0795
9,CGCAGCCC,-0.0915
10,GGACAGCC,-0.0835
11,GGCCGACA,-0.221
12,AGCGGCCG,-0.124
13,CGGCTTCC,-0.0384
14,AACCCTCA,-0.0866
15,GCGCTAGC,-0.257
16,ACTGAACT,0.114
17,AGGCTGCA,-0.211
18,GACCTATA,0.166
19,CCGGCTAG,-0.312
20,GGCCACCC,-0.14
21,CAGGTTGC,0.0356
22,GTGTATTA,0.273
23,GGGAGAAA,-0.14
24,AGTGCACT,0.00945
25,AAACCGGC,0.0295

# Exported with tabs: entries from further up
row	Sequence	PBM E-score
11	AGCGATAG	-0.127
12	CCATGTTA	0.125
25	ACTAGTGG	0.134
22	CGTCAAAC	-0.105
8	CACGCGTA	0.0157
4	CCGTGTGC	-0.104

# (next part)

row,Sequence,PBM E-score
1,GCTTGCAC,-0.153
2,CCTATCAC,-0.00415
3,CGAGACGA,-0.172
4,GGCGCCCC,-0.181
5,ATTAGGCA,0.0131
6,AGGAATAT,0.162
7,TGCTGAAA,-0.166
8,AGCGCATC,-0.00729
9,CATCGCGG,0.00796
10,ATGCCATG,0.0486
11,TACAGGTA,0.116
12,CTGTCTCC,-0.0856
13,ACGCTCCT,-0.121
14,AAATCACT,0.141
15,AACGACGG,0.0702
16,CCACATTA,0.11
17,ACGGAGGA,-0.131
18,CGCGAGTA,0.21
19,CCTCGGGC,-0.151
20,CATTGTGA,0.159
21,CTCCCCCA,-0.387
22,CCAGGGGC,-0.283
23,CTCACCTC,0.112
24,AGGCGCTC,-0.263
25,GATGACAA,0.27

row,Sequence,PBM E-score
1,AAACTGTG,0.0317
2,GGCCTCAC,-0.0663
3,ATATGCGA,0.151
4,ATCTGCTG,-0.0633
5,GCGAACAC,-0.00885
6,TAACTCAA,0.106
7,CCTTGCAG,-0.283
8,ATAAGAAT,0.224
9,ATACGACA,0.127
10,ACCAGTAA,0.0991
11,ACATTACA,0.105
12,AGCAACGC,-0.0248
13,AAAGGCCA,-0.142
14,CTGGAAGC,-0.24
15,CATAGAGC,-0.148
16,AATGCACC,-0.109
17,AAAGCTAT,-0.00422
18,AATTAACC,0.143
19,TGCTTGAA,0.0612
20,ACCCGGTA,0.0389
21,GAACGCCA,-0.0604
22,CCTCTTGC,-0.166
23,GAGGTTCC,-0.146
24,CTGGGTTA,-0.0908
25,CTGAGGTC,-0.127

row,Sequence,PBM E-score
1,CAAGTGAC,0.078
2,GATCCATA,0.0427
3,ACTGACTC,-0.0414
4,CACTCCAG,-0.00782
5,ACAGCAGC,0.00839
6,CAGCTGAG,0.0214
7,CGAGTCAG,-0.126
8,CTATACCA,0.0886
9,GGACGTAC,-0.034
10,AGTAGTAT,0.165
11,AACTTGAT,0.174
12,GAAGTAAA,0.0647
13,CTAGGCGC,-0.0829
14,TCATGGGA,-0.00205
15,AGTGAGAC,-0.118
16,ACTTACCT,-0.0896
17,CGCCAATA,0.121
18,CGACGGCG,-0.146
19,AATGCCTA,0.0217
20,AAAAAGTC,0.0168
21,AACGACAT,0.192
22,CAACGAGC,-0.134
23,AATCGTGC,0.176
24,GTCCAAAA,0.0885
25,AAGGCTGC,-0.15

row,Sequence,PBM E-score
1,CTTTCAGA,0.00683
2,TGCAGACA,0.0564
3,TGAATCCA,0.0884
4,CTGAACCA,-0.119
5,GACCATGA,0.00385
6,ACCAGACA,-0.178
7,CTAGTCGA,-0.0538
8,GAGCATGA,0.0489
9,GAAGTATA,0.235
10,CCTGCACC,-0.279
11,CACGGTAC,-0.332
12,CATTATCC,0.276
13,AAAGATGG,0.0217
14,GCGTTCTA,-0.00959
15,ATCGTTTC,-0.0521
16,GCAAAGCC,-0.236
17,AAAACTAG,-0.0595
18,CCAGAACA,0.0798
19,CGGGCGTA,-0.132
